Reference: PubChem BioAssay AID1224830 (NIAID, 2016)
The deposit covers about 18,000 reagents; shown is a part drawn at random. About 2,900 of all reagents (16%) were called active. 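Calls are made per well; low scores hint the gene aids the LPS response, high scores that it dampens it.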 Entries without a mark were called inactive. Repeated entries: four replicate wells of each siRNA pool.

- Purpose: 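Host factors that control LPS-induced TNF expression in human macrophages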 (primary screen)
- System: human THP-1 monocytic leukaemia cells, TNF dual-luciferase reporter clone, PMA-differentiated to macrophage-like cells
- Reagent: siRNA pool against human genes, 50 nM
- Duration: LPS for 4 h, given about 3 days after siRNA transfection
- Conditions: bacterial LPS (TLR4 ligand), 10 ng/ml
- Read-out: 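TNF firefly reporter luminescence divided by renilla, normalised to the plate median, then turned into a robust z-score for each replicate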
- Reading the numbers: TNF reporter robust z-score: higher = stronger TNF reporter response to LPS
- Rule for the call: 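Each well counts as active if its z-score is over 2.8 or under -1.5; controls are left without a call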

target | TNF reporter robust z-score
NUDT22 (nudix hydrolase 22) | -0.68
NUDT22 (nudix hydrolase 22) | -0.99
NUDT22 (nudix hydrolase 22) | -0.9
UNC80 (unc-80 subunit of NALCN channel complex) | 0.92
UNC80 (unc-80 subunit of NALCN channel complex) | 2.88 (active)
UNC80 (unc-80 subunit of NALCN channel complex) | 1.55
UNC80 (unc-80 subunit of NALCN channel complex) | 1.35
UXT (ubiquitously expressed prefoldin like chaperone) | 0.98
UXT (ubiquitously expressed prefoldin like chaperone) | 1.01
UXT (ubiquitously expressed prefoldin like chaperone) | -0.15
UXT (ubiquitously expressed prefoldin like chaperone) | 2.33
CCDC127 (coiled-coil domain containing 127) | 1.69
CCDC127 (coiled-coil domain containing 127) | 1.11
CCDC127 (coiled-coil domain containing 127) | 1.8
CCDC127 (coiled-coil domain containing 127) | 2.99 (active)
FGL1 (fibrinogen like 1) | 2.62
FGL1 (fibrinogen like 1) | 2.31
FGL1 (fibrinogen like 1) | 2.22
FGL1 (fibrinogen like 1) | 2.9 (active)

Next part (4 carried over from the part before).
target | TNF reporter robust z-score
FGL1 (fibrinogen like 1) | 2.62
FGL1 (fibrinogen like 1) | 2.31
FGL1 (fibrinogen like 1) | 2.22
FGL1 (fibrinogen like 1) | 2.9 (active)
ACAP3 (ArfGAP with coiled-coil, ankyrin repeat and PH domains 3) | -0.44
ACAP3 (ArfGAP with coiled-coil, ankyrin repeat and PH domains 3) | 0.14
ACAP3 (ArfGAP with coiled-coil, ankyrin repeat and PH domains 3) | 1.54
ACAP3 (ArfGAP with coiled-coil, ankyrin repeat and PH domains 3) | 0.91
PSMB1 (proteasome 20S subunit beta 1) | -1.48
PSMB1 (proteasome 20S subunit beta 1) | -1.68 (active)
PSMB1 (proteasome 20S subunit beta 1) | -1.56 (active)
PSMB1 (proteasome 20S subunit beta 1) | -2.09 (active)
KAT2B (lysine acetyltransferase 2B) | -0.22
KAT2B (lysine acetyltransferase 2B) | -0.84
KAT2B (lysine acetyltransferase 2B) | -0.96
KAT2B (lysine acetyltransferase 2B) | -1.27
NECAB1 (N-terminal EF-hand calcium binding protein 1) | 0.37
NECAB1 (N-terminal EF-hand calcium binding protein 1) | 0.75
NECAB1 (N-terminal EF-hand calcium binding protein 1) | 0.55
NECAB1 (N-terminal EF-hand calcium binding protein 1) | 1.87
NOP53 (NOP53 ribosome biogenesis factor) | -0.67
NOP53 (NOP53 ribosome biogenesis factor) | 1.28
NOP53 (NOP53 ribosome biogenesis factor) | 3.11 (active)
NOP53 (NOP53 ribosome biogenesis factor) | 3.61 (active)
ITPRIP (inositol 1,4,5-trisphosphate receptor interacting protein) | 1.42
ITPRIP (inositol 1,4,5-trisphosphate receptor interacting protein) | 1.78
ITPRIP (inositol 1,4,5-trisphosphate receptor interacting protein) | 2.04
ITPRIP (inositol 1,4,5-trisphosphate receptor interacting protein) | 0.75
TSHB (thyroid stimulating hormone subunit beta) | -0.43
TSHB (thyroid stimulating hormone subunit beta) | -0.09
TSHB (thyroid stimulating hormone subunit beta) | -0.19
TSHB (thyroid stimulating hormone subunit beta) | 0.15
